Source: PubChem BioAssay AID602313 (National Center for Advancing Translational Sciences (NCATS), 2012)
The campaign covered roughly 390,000 compounds. About 760 (0.19%) were called active. This list was built around the results that the source calls inconclusive (neither active nor inactive); the mix of calls is not that of the screen. Calls come from the whole dose curve; as a rule, active = well fitted inhibition curve with a large enough effect; inconclusive = small, poorly fitted or top-dose-only effect; inactive = flat fitted curve, though single readings scatter. Where the call is inconclusive, the potency comes from a doubtful curve fit.
Potency is the fitted concentration of half-maximal effect.

Experiment: qHTS for Inhibitors of Vif-A3F Interactions: qHTS; note: nearly all actives have a fitted effect of over 65% in size; for activity, negative = active: % of control where 0% means no effect
Conditions: HeLa A3F-eYFP + Vif (tagged APOBEC3F with the HIV-1 protein that degrades it), YFP fluorescence increase; series mostly up to 46.1 µM; activity, negative = active: at the top concentration
Method in brief: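 HeLa cells stably expressing A3F-eYFP plus Vif, plated and incubated overnight at 37 deg C, then exposed to compounds overnight at 37 deg C. Blocked degradation read as raised yellow fluorescence (Ex 488/Em 500-530).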
For `Cc1c(C(=O)N2CCOCC2)c(S(=O)(=O)Nc2ccccc2F)c(C)n1C`, the “activity, negative = active” value was inactive: 6.48%. In the case of `CNc1ccc(Br)cc(C(=O)/C=C/c2cc(OC)ccc2OC)c1=O`, the Potency is reported as inconclusive: 35.5 µM [inhibitor, single point]. For `CCc1c(C)nc2cc(-c3cccs3)[nH]n2c1=O`, the Potency was inconclusive: 7.08 µM [inhibitor, partial curve]. In the case of `COc1cc(OC)c(N(C)C(=O)c2nn(C)c3c2CSc2ccccc2-3)cc1Cl`, the “activity, negative = active” value is reported as inactive: -9.91%. With `C=C(C)C1CCC2(C(=O)O)CCC3(C)C(CCC4C5(C)C(C=O)C(O)C(C)(C)C5CCC43C)C12` (stereo not given) the Potency was inconclusive: 25.1 µM [inhibitor, single point]. With `COc1ccc(NC(=O)c2ccsc2NC(C)=O)cc1` the Potency was inconclusive: 6.31 µM [inhibitor, single point]. For `O=C1NN(c2ccccc2)C(=O)/C1=C\c1coc2ccc(O)cc2c1=O`, the Potency was inconclusive: 35.5 µM [inhibitor, single point]. With `COc1ccc(C(C(=O)NC2CCCC2)N(Cc2cccnc2)C(=O)c2snc(C(N)=O)c2N)cc1` (stereo not given) the Potency was inconclusive: 3.55 µM [inhibitor, partial curve]. For `Cc1ccc(S(=O)(=O)Nc2ccc3cc([N+](=O)[O-])ccc3c2[N+](=O)[O-])cc1`, the Potency was inconclusive: 35.5 µM [inhibitor, single point]. With `Cc1ccccc1CCN(CC(=O)NCc1ccc(F)cc1)C(=O)c1csnn1` the Potency was inconclusive: 3.55 µM [inhibitor, single point]. For `C1COC(NC(C2CC2)C2CC2)=N1`, the Potency was inconclusive: 35.5 µM [inhibitor, single point]. With `Cc1ccc(-n2nnc3c(SCC(=O)NCc4ccco4)ncnc32)cc1` the “activity, negative = active” value was inactive: -15.6%. In the case of `O=C(/C=C/c1ccco1)NCC1OCCc2ccccc21` (stereo not given), the Potency is reported as inconclusive: 35.5 µM [inhibitor, single point]. With `O=C(NCc1ccccc1Cl)C1CCN(S(=O)(=O)c2cccs2)CC1` the “activity, negative = active” value was inactive: -22.5%. In the case of `Cc1ccc(-n2nc3c(N4CCCC(C(=O)NCCc5ccccc5)C4)nnc(C)c3c2C)cc1` (stereo not given), the Potency is reported as inconclusive: 17.8 µM [inhibitor, single point]. In the case of `CN(C)c1ccc(NC(=O)c2ccc3c(c2)nnn3C)cc1`, the Potency is reported as inconclusive: 4.47 µM [inhibitor, single point]. For `Cc1ccn2c(NC3CCCCC3)c(-c3cccc(-c4cccc(Cl)c4)c3)nc2c1`, the Potency was inconclusive: 15.8 µM [inhibitor, single point]. In the case of `CC12CC(c3ccccc3O1)N(C(=O)c1ccco1)C(=S)N2c1ccccc1` (stereo not given), the “activity, negative = active” value is reported as inactive: -6.37%. In the case of `COc1ccc(NC(=O)N2CCN(c3nc4ccccc4n3C(C)C)CC2)cc1`, the Potency is reported as inconclusive: 5.62 µM [inhibitor, single point]. In the case of `O=[N+]([O-])c1ccc2[nH]c(O)c(N=Nc3ccc(F)cc3)c2c1`, the “activity, negative = active” value is reported as inactive: -31.6%. In the case of `CC1=NN(C(=O)c2ccc(Cn3cc(Br)c([N+](=O)[O-])n3)o2)C(O)(C(F)(F)F)C1` (stereo not given), the “activity, negative = active” value is reported as inactive: -4.63%. With `CCN(C(=O)C=Cc1ccco1)c1ccccc1` the Potency was inconclusive: 11.2 µM [inhibitor, partial curve, poor fit]. With `O=C(COC(=O)Cc1n[nH]c(=O)c2ccccc12)Nc1c(Cl)cccc1C(F)(F)F` the Potency was inconclusive: 2.24 µM [inhibitor, partial curve, poor fit]. With `CN1CCc2c(sc(NC(=O)c3ccc(S(=O)(=O)N4CCOCC4)cc3)c2C(N)=O)C1` the Potency was inconclusive: 25.1 µM [inhibitor, single point]. With `Cc1cccc(C)c1NC(=O)CNC(=O)C12CC3CC(CC(O)(C3)C1)C2` the Potency was inconclusive: 3.55 µM [inhibitor, partial curve, poor fit]. In the case of `CCCN(CCC)CCCNC(=O)c1cc2c(=O)n(CC)c3ccccc3c2s1`, the Potency is reported as inconclusive: 35.5 µM [inhibitor, single point]. With `Cc1c(Cl)cccc1-n1c(SCC(=O)NCc2ccccc2)nc2n[nH]c(C)c2c1=N` the “activity, negative = active” value was inactive: 2.38%. For `CCOc1ccc(OCC)c(NC(=O)c2nnn(CC(=O)Nc3cc(C)cc(C)c3)c2N)c1`, the Potency was inconclusive: 3.16 µM [inhibitor, single point]. With `CCCOCc1cc(CN2CCN(c3cccc(Cl)c3)CC2)c(O)c2ncccc12` the Potency was inconclusive: 35.5 µM [inhibitor, single point]. In the case of `COc1ccc2c(c1)c(C(C)=O)c(C)n2CCc1ccc(OC)c(OC)c1`, the “activity, negative = active” value is reported as inactive: 0.91%. With `CCOC(=O)c1ccc(Nc2nc(N)c3cc(OC)c(OC)cc3n2)cc1` the Potency was inconclusive: 6.31 µM [inhibitor, single point]. For `COc1ccc(Cn2c(=S)[nH]c3cc(OC)c(OC)cc3c2=O)cc1`, the Potency was inconclusive: 3.98 µM [inhibitor, single point]. In the case of `COCCN1C(=O)/C(=C/c2ccc(N3CCCC3)cc2)SC1=S`, the Potency is reported as inconclusive: 2.24 µM [inhibitor, full curve, poor fit]. For `COc1ccc(-c2ccc3c(N)c(C(=O)Nc4ccc(C)cc4C)sc3n2)cc1OC`, the Potency was inconclusive: 35.5 µM [inhibitor, single point]. In the case of `O=C(N/N=C/c1cccnc1)c1ccc2c(c1)OCCO2`, the Potency is reported as inconclusive: 6.31 µM [inhibitor, single point]. In the case of `Cc1cccc(OCC(=O)Nc2ccccc2N2CCCCC2)c1C`, the Potency is reported as inconclusive: 5.62 µM [inhibitor, single point]. With `COc1cccc(CN2CCN(Cc3cc(OC)c(OC)cc3OC)CC2)c1` the Potency was inconclusive: 2.82 µM [inhibitor, full curve, poor fit]. For `Cc1nn(C)c(C)c1N1C(=O)c2cccc3c(N)ccc(c23)C1=O`, the Potency was inconclusive: 1.41 µM [inhibitor, partial curve, poor fit]. For `Cc1c(N=C2N=C(NC(=O)Nc3ccc(Cl)cc3)c3ccccc32)c(=O)n(-c2ccccc2)n1C`, the Potency was inconclusive: 3.16 µM [inhibitor, partial curve, poor fit]. With `N#CCC(=O)Nc1ccc(C(=O)OC(C(=O)Nc2cc(C(F)(F)F)ccc2Cl)c2ccccc2)cc1` (stereo not given) the Potency was inconclusive: 11.2 µM [inhibitor, partial curve, poor fit]. For `C=CCC[C@H](Cc1ccc(F)cc1)C(=O)OC[C@H](Cc1c[nH]c2ccccc12)NC(=O)[C@@H](CC=C)CC(=O)NCCO`, the “activity, negative = active” value was inactive: -1.24%. In the case of `Cc1ccccc1C(=O)/C=C1/SCC(=O)N1C`, the Potency is reported as inconclusive: 35.5 µM [inhibitor, single point]. In the case of `CCN(c1ccc(C)cc1C)S(=O)(=O)c1nnc(NC(=O)C(C)(C)C)s1`, the Potency is reported as inconclusive: 15.8 µM [inhibitor, single point]. With `Cn1cccc1/C=C1\SC(=S)N(CC(=O)O)C1=O` the Potency was inconclusive: 7.08 µM [inhibitor, partial curve]. For `CC(C)(C)c1ccc(C(=O)Nc2nnc(C3=COCCO3)o2)cc1`, the Potency was inconclusive: 22.4 µM [inhibitor, single point]. For `O=C(Nc1ccc(NC(=O)c2cccs2)cc1)c1ccco1`, the “activity, negative = active” value was inactive: -5.21%. In the case of `Cc1ccc(S(=O)(=O)c2cc(O)ccc2O)cc1C`, the “activity, negative = active” value is reported as inactive: -10.2%. In the case of `COc1ccc(OC)c(/C=C2\SC(=S)N(C(C(=O)O)c3ccccc3)C2=O)c1` (stereo not given), the Potency is reported as inconclusive: 15.8 µM [inhibitor, single point]. In the case of `O=C1NCCN(Cc2ccc(-c3ccccc3)cc2)C1CC(=O)N1CCN(CCO)CC1` (stereo not given), the Potency is reported as inconclusive: 10 µM [inhibitor, partial curve, poor fit]. In the case of `CC(=O)Nc1ccc(S(=O)(=O)Nc2cc(Cl)ccc2N2CCOCC2)cc1`, the “activity, negative = active” value is reported as inactive: 2.13%. For `Cc1ccc(NC(=O)Cn2c(=O)n(-c3ccc(C)cc3)c(=O)c3ccc(C(=O)NCc4ccccc4Cl)cc32)cc1`, the Potency was inconclusive: 22.4 µM [inhibitor, partial curve, poor fit]. With `Cc1ccc(S(=O)(=O)c2nc(-c3ccco3)oc2SC(C)C)cc1` the Potency was inconclusive: 22.4 µM [inhibitor, partial curve, poor fit]. With `Cc1ccc(NC(=O)COC(=O)CN2C(=O)NC3(CCCC3)C2=O)cc1F` the Potency was inconclusive: 2.24 µM [inhibitor, partial curve, poor fit]. In the case of `Cc1cc(C)n2c(SCc3nnc(-c4cccs4)o3)nnc2n1`, the Potency is reported as inconclusive: 35.5 µM [inhibitor, single point]. For `CON(C)C(=O)CC(CN(Cc1ccccc1)C(=O)OC(C)(C)C)c1ccc(Cl)cc1` (stereo not given), the “activity, negative = active” value was inactive: -0.0773%. In the case of `COc1ccc(-c2c(C#N)c(N)nc(Sc3ccc(Cl)cc3)c2C#N)cc1`, the Potency is reported as inconclusive: 8.91 µM [inhibitor, partial curve]. In the case of `COc1ccc2cc3cc(C(=O)Nc4ccccc4N4CCN(C)CC4)oc3nc2c1`, the Potency is reported as inconclusive: 35.5 µM [inhibitor, single point]. In the case of `CCc1ccc(C(=O)NNC(=O)CCc2nc3ccccc3c(=O)[nH]2)cc1`, the Potency is reported as inconclusive: 3.16 µM [inhibitor, single point]. For `OCC1(Cc2ccccc2)CCN(CCCC2CCCC2)CC1`, the “activity, negative = active” value was inactive: 1.47%. In the case of `CCc1ccccc1NC(=O)C1COc2ccccc2C1` (stereo not given), the “activity, negative = active” value is reported as inactive: -4.4%. With `COc1ccc(NC(=O)Cc2c(F)c(F)c(F)c(F)c2F)cc1OC` the Potency was inconclusive: 35.5 µM [inhibitor, single point]. For `Cc1ccc2nc(SCC(=O)NCc3ccccc3)nc(=O)n2c1`, the Potency was inconclusive: 3.16 µM [inhibitor, single point]. In the case of `Cc1ccc2[nH]cc(CCNC(=O)c3cccnc3)c2c1`, the “activity, negative = active” value is reported as inactive: -12%. For `CCCCn1cnc2c(Sc3c([N+](=O)[O-])ncn3C)nc(N)nc21`, the “activity, negative = active” value was inactive: 1.05%. With `Cc1ccc2nc(NS(=O)(=O)c3ccc(Cl)cc3)c(Nc3ccc(C(=O)O)cc3)nc2c1` the Potency was active: 4.47 µM.
